The other results are listed elsewhere or left out. Shown are side measurements of this screen, not its main read-out; they come without a call.
Assay: C2C12 mouse myoblast viability loss, dose response, cytotoxicity control for HRAS target identification, cell-based, Alamar Blue fluorescence, 8/24/48 h, dry powder (AID 720601)
Conditions: at 35 µM, stronger effect = lower value

## CC(C)(C)OC(=O)NCCOCCOCCOc1ccc(N(C(=O)CCl)C(C(=O)NCCc2ccccc2)c2cccs2)cc1Cl (stereo not given)
8 h viability change
  activity: 3.69%
24 h viability change
  activity: -9.96%

## COc1ccc(N(C(=O)CCl)C(C(=O)NCCc2ccccc2)c2cccs2)cc1Cl (stereo not given)
8 h viability change
  activity: 1.7%
24 h viability change
  activity: -12.3%

## Cc1onc(C(=O)N2CCN(C(c3ccc(Cl)cc3)c3ccc(Cl)cc3)CC2)c1[N+](=O)[O-]
8 h viability change
  activity: 0.389%
24 h viability change
  activity: -11.1%

## COC(=O)c1ccc([C@@H]2c3[nH]c4ccccc4c3C[C@@H](C(=O)OC)N2C(=O)CCl)cc1
8 h viability change
  activity: 6.88%
24 h viability change
  activity: -10.9%

## C#CCCCC(=O)NCCOCCOCCOc1ccc(N(C(=O)CCl)C(C(=O)NCCc2ccccc2)c2cccs2)cc1Cl (stereo not given)
8 h viability change
  activity: 3.92%
24 h viability change
  activity: -9.34%

— PubChem BioAssay AID720601 (Broad Institute, 2013)
